The assay can be described thus: IkB Signaling. The note with it: ABC-DLBCL IkBa-CBG/CBR dual luciferase ratio (green luciferase fused to IkBa over red control in OCI-Ly3 lymphoma cells), 4 h. A digest of the protocol:
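In this assay, an IκBα–CBG68 fusion accumulates when IKK-driven degradation is blocked; native CBR normalizes for cell number. OCI-Ly3 cells were treated 4 h with compound and doxycycline, then green and red light read after Chroma-Glo addition.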

Where [1] appears, read: measured here: IkB-luc green channel.
Where [2] appears, read: measured here: control luc red channel.
[3] abbreviates: measured here: control luc red channel unless noted.

Some of the results follow. These are further read-outs of the screen, such as a control signal, another cell line or another target. No call is given for them. Compounds called inactive in the main read-out are mostly missing here. The note in brackets gives the kind of curve behind each potency; many fits are weak.

A word on the AC50: it is the concentration giving half of the maximal activity seen. On to `CC(=O)Nc1cccc(-c2nnc(SCC(=O)c3cc([N+](=O)[O-])ccc3Cl)o2)c1`, for which the concentration at half-maximal activity (AC50) is, setting by setting: under setting [1], 31.6 µM [rising, partial curve]; under setting [2], 15.8 µM [falling, partial curve]. `COc1cccc(N2CCN(C(=O)c3ccc4nc(N5CCC(C)CC5)sc4c3)CC2)c1`: the AC50 under setting [3] is 1.58 µM [falling, full curve]. As to `CCOC(=O)c1cnc2ccc(C(=O)OC)cc2c1Nc1ccc(OCc2ccccc2Cl)cc1`, the AC50 under setting [3] was 39.8 µM [falling, single point]. Same read-out and setting: to `OCCn1c(CSc2nnc(-c3ccco3)n2-c2ccccc2)nc2ccc(Cl)cc21` belongs 3.98 µM [falling, partial curve, poor fit]; to `O=C(NCc1cccc(Br)c1)C1CCCCN1S(=O)(=O)c1ccc(F)cc1` (configuration not stated), 31.6 µM [falling, single point]; to `COc1cccc(NC(=O)C(C)n2c(=O)cc(C(F)(F)F)c3c(C)nn(C)c32)c1` (configuration not stated), 7.94 µM [falling, partial curve]. As for `CCc1ccc(CNC(=O)CN2C(=O)C3CCCCN3c3ccc(C(=O)N4CCCC4)cc32)cc1` (configuration not stated), the AC50 under setting [3] is 20 µM [falling, partial curve, poor fit]. On to `COc1ccc(N2CSC3=C(C#N)C(c4ccc(OC)c(OC)c4)CC(=O)N3C2)c(OC)c1` (configuration not stated), for which the AC50 under setting [3] is 25.1 µM [rising, partial curve] [measured here: IkB-luc green channel].

On to `CC(C)Oc1ccc(CNC(=O)C(C)n2ccc3cc(S(=O)(=O)N4CCCCCC4)ccc32)cc1` (configuration not stated), for which the half-maximal activity concentration (AC50) under setting [3] was 12.6 µM [falling, partial curve]. On the same count and under the same terms, as for `CCOc1ccccc1NC(=O)Cn1c(=O)nc(-c2ccccc2F)c2cc(Cl)ccc21`, the figure is 25.1 µM [falling, single point]; as for `Cc1ccc(-c2csc(N3CCC(NS(=O)(=O)c4ccc5c(c4)OCCO5)CC3)n2)cc1`, 5.01 µM [falling, partial curve]; as for `COc1ccc(OCc2nc3ccccc3n2Cc2ccc(C(C)(C)C)cc2)cc1`, 20 µM [falling, partial curve]. Same read-out and setting: as for `CCN(CC)C(=O)Cn1c(SCC(=O)Nc2ccc(F)cc2)nc2ccccc21`, the figure is 15.8 µM [falling, partial curve]; as for `Cc1ccc(-c2nnc(Nc3ccc(OCC(N)=O)cc3)c3ccccc23)cc1S(=O)(=O)NCC1CCCO1` (configuration not stated), 25.1 µM [falling, partial curve]; as for `O=C(CCn1cnc2onc(-c3ccc(F)cc3)c2c1=O)Nc1cccc(C(F)(F)F)c1`, 25.1 µM [falling, single point]. Still for that read-out and setting: as for `Cc1ccc(-n2c(=O)c3c(cnn3C)n(CC(=O)Nc3cccc(Cl)c3)c2=O)cc1`, the figure is 20 µM [falling, partial curve]. With `Cc1ccc(CNC(=O)C2CCN(C(=O)N3CC(C)Oc4ccc(Cl)cc43)CC2)cc1` (configuration not stated), the AC50 under setting [3] is 20 µM [falling, single point]. For `Cc1ccc(CSc2nc3ccccc3c3nc(CCn4c(C)nc5ccccc54)nn23)cc1`, the AC50 under setting [3] is 6.31 µM [rising, partial curve, poor fit].

`CCOc1ccc(NC(=O)c2ccc3c(=O)n4c(nc3c2)CCCCC4)cc1`: the AC50 under setting [3] is 20 µM [falling, single point].

In the case of `Cc1ccc(C)c(N2CCN(CCCNC(=O)c3cnn(-c4cccc(Cl)c4)c3C3CCN(C(=O)OC(C)(C)C)CC3)CC2)c1`, the AC50 under setting [3] was 12.6 µM [falling, partial curve]. For `CC(=O)Oc1c(S(=O)(=O)c2ccccc2)c(C)nn1C(C)(C)C`, the AC50 under setting [1] is 39.8 µM [falling, single point] and the AC50 under setting [2] was 10 µM [falling, partial curve]. Turning to `COc1cccc(NS(=O)(=O)c2ccc3[nH]cc(C(=O)NC(C)c4ccccc4)c(=O)c3c2)c1` (configuration not stated), the AC50 under setting [3] was 12.6 µM [falling, partial curve]. `Cc1cccc(NC(=O)c2cn(-c3ccccc3)nc2-c2ccccc2)c1C`: under setting [3], the AC50 was 25.1 µM [falling, partial curve]. For the molecule `Cc1ccccc1CN1CCCN(CC(=O)Nc2ccc(F)cc2)S1(=O)=O`, the AC50 under setting [3] was 12.6 µM [falling, partial curve]. Same read-out and setting: as for `CCOC(=O)c1c(C)oc2nc(C)nc(NCCc3ccc(Cl)cc3)c12`, the figure is 25.1 µM [falling, partial curve]; as for `CC(C)(C)NC(=O)c1cccc(NC(=O)c2ccc(NC(=O)c3ccco3)cc2)c1`, 15.8 µM [falling, partial curve]; as for `Cc1ccc(/C=C/C(=O)Nc2ccc3nc(N4CCC(C)CC4)cc(C)c3c2)cc1`, 15.8 µM [falling, partial curve]. `Cn1c(=O)oc2cc(S(=O)(=O)NC(Cc3ccccc3)C(=O)Nc3ccc(F)c(Cl)c3)ccc21` (configuration not stated): the AC50 under setting [3] was 6.31 µM [falling, full curve]. Same read-out and setting: to `c1ccc(-c2noc(CSc3nnnn3-c3ccccc3)n2)cc1` belongs 25.1 µM [falling, partial curve]. On to `CC1CCc2c(sc3ncnc(N4CCOCC4)c23)C1` (configuration not stated), for which the AC50 under setting [3] was 12.6 µM [falling, partial curve]. On the same count and under the same terms, as for `CC(OC(=O)c1ccccc1NCc1ccco1)C(=O)Nc1ncc(Cl)cc1Cl` (configuration not stated), the figure is 31.6 µM [falling, partial curve]; as for `Cc1ccc(CNC(=O)c2ccc3c(c2)c(C)c(C)n3Cc2ccc(Cl)cc2)o1`, 25.1 µM [falling, partial curve]; as for `Cc1c(-c2ccccc2)c(=O)oc2c(CN3CCOCC3)c(O)ccc12`, 12.6 µM [rising, partial curve]. On the same count and under the same terms, to `Cc1ccc(C2C=C(c3ccccc3)Nc3nc(NS(C)(=O)=O)nn32)cc1` (configuration not stated) belongs 7.94 µM [rising, single point]. On the same count and under the same terms, as for `COc1ccc(CCNC(=O)c2ccc3c(c2)N=C(C)c2ccccc2S3)cc1OC`, the figure is 39.8 µM [falling, single point]; as for `CNS(=O)(=O)c1cccc(C(=O)OCC(=O)c2cc(C)n(-c3ccc4c(c3)OCO4)c2C)c1`, 15.8 µM [falling, partial curve]. Regarding `COc1ccc(NC(=O)NC(C)c2c(-n3cccc3)sc(C)c2C)cc1OC` (configuration not stated), the AC50 under setting [3] was 31.6 µM [falling, single point]. In the case of `CCOc1cccc2sc(NC(=O)c3ccc(S(=O)(=O)N4CCCCC4C)cc3)nc12` (configuration not stated), under setting [3], the half-maximal activity concentration (AC50) was 0.316 µM [falling, full curve]. The same measure, in the same setting: to `CCOC(=O)c1c(C)[nH]c(C)c1S(=O)(=O)N1CCN(c2cc(Cl)ccc2C)CC1` belongs 25.1 µM [falling, single point]. Still for that read-out and setting: as for `Clc1ccccc1Cn1c(-c2cccs2)nc2ccccc21`, the figure is 6.31 µM [rising, single point]; as for `Cc1nnc(NC(=O)c2nc(SC(C)C)ncc2Cl)s1`, 15.8 µM [falling, partial curve]; as for `CCc1cccc(NC(=O)c2ccc3c(c2)N(Cc2cccc(Cl)c2)C(=O)c2ccccc2S3=O)c1` (configuration not stated), 15.8 µM [falling, single point]. On the same count and under the same terms, to `Cc1ccc(-c2cc(C(=O)NCc3ccc4c(c3)OCO4)[nH]n2)c(O)c1C` belongs 39.8 µM [rising, single point] [measured here: IkB-luc green channel].

Consider `CC(=O)NCCOc1ccc(C(=O)O)cc1`, for which the AC50 under setting [3] was 15.8 µM [falling, partial curve]. On to `CC(C)(C)n1nnnc1C(c1ccccc1F)N(Cc1ccco1)CC1CCCO1` (configuration not stated), for which, under setting [3], the AC50 is 25.1 µM [falling, single point]. Same read-out and setting: to `CC(C)C(=O)Nc1cccc2nsnc12` belongs 20 µM [falling, partial curve]; to `Cc1cccc(N2CCN(C(=O)CCS(=O)(=O)c3ccc4c(c3)CC(=O)N4C)CC2C)c1` (configuration not stated), 10 µM [falling, partial curve, poor fit]. In the case of `COC(=O)Nc1nc2ccc(SC(C)C)cc2[nH]1`, the concentration at half-maximal activity (AC50) is 2.51 µM [rising, full curve] under setting [1] and 2 µM [rising, full curve] under setting [2]. For `CC(=O)N1CCN(c2csc3ccc(Cl)cc3c2=O)CC1`, under setting [3], the AC50 is 0.158 µM [rising, full curve]. Same read-out and setting: as for `Cc1cccc(C(c2sc3nc(-c4ccco4)nn3c2O)N2CCOCC2)c1` (configuration not stated), the figure is 20 µM [rising, single point]; as for `CCNc1nc2c(c(=O)n(C)c(=O)n2C)n1Cc1ccc(F)cc1`, 1 µM [falling, full curve, poor fit]; as for `Cc1ccc(CSC2=NC(C)(C)Nc3ccccc32)c(C)c1`, 7.94 µM [falling, full curve]. The same measure, in the same setting: to `COc1ccc(-c2csc3ncnc(Nc4ccccc4)c23)cc1` belongs 10 µM [falling, partial curve]; to `COC(=O)C1=C(C)NC(C)=C(C(=O)OCCCN2CCC(c3ccccc3)(c3ccccc3)CC2)[C@H]1c1cccc([N+](=O)[O-])c1`, 31.6 µM [falling, partial curve]; to `Fc1cccc(CN2CCc3nc(Nc4ccc5c(c4)OCCO5)ncc3C2)c1F`, 39.8 µM [falling, partial curve]. The same measure, in the same setting: to `COc1ccc(-c2noc(N3CCC(C(=O)N4CCN(c5cccc(OC)c5)CC4)CC3)n2)cc1` belongs 15.8 µM [falling, partial curve]. For the molecule `COC(=O)c1[nH]c2ccc(C)cc2c1NC(=O)CN1CCN(Cc2ccccc2)CC1`, the AC50 under setting [3] is 12.6 µM [falling, partial curve].

In the case of `COc1ccc(NC(=O)Cn2cc(C(=O)c3ccc(C)c(C)c3)c(=O)c3cc(OC)ccc32)cc1`, the AC50 under setting [3] is 39.8 µM [falling, single point]. The same measure, in the same setting: to `Cc1ccc(-n2ncc(C(=O)N3CCN(c4ccccc4F)CC3)c2C2CCN(C(=O)OC(C)(C)C)CC2)cc1C` belongs 25.1 µM [falling, single point].

Values taken from PubChem BioAssay AID445 (National Center for Advancing Translational Sciences (NCATS), 2006).
